# According to PubChem BioAssay AID1347076 (National Center for Advancing Translational Sciences (NCATS), 2019):
# The campaign covered roughly 400,000 compounds. About 13,000 (3.2%) were called active. The inconclusive results got no clear call from the source; some entries with a clear call stand among them for comparison. Calls follow the shape of the dose curve; as a rule, active = well fitted cell-killing curve with a large enough effect; inconclusive = small, poorly fitted or top-dose-only effect, or effect the other way; inactive = flat fitted curve, though single readings scatter. A potency beside an inconclusive call is a rough fit, not a confirmed value.
# Test: qHTS assay for MDR1-selective chemotherapeutics: Primary screen using the drug-selected MDR subline cells KB-V1; also: nearly all actives have a fitted effect of over 60% in size
# Conditions: KB-V1 MDR cells viability, CellTiter-Glo, 72 h; activity change, negative = cytotoxicity: at 46.1 µM (top of the series)
# Procedure, shortened: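 In this primary screen, KB-V1 cells overexpressing P-gp are incubated with library compounds (lowest to highest concentration) for 72 h at 37 degrees C before a luminescent ATP viability read.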
# % is scaled to controls: 0 for no effect and ±100 for the full control effect; potency is read from the fitted curve at half-maximal effect.
Structure (SMILES),"activity change, negative = cytotoxicity",Potency
CC1CCc2c(sc(NC(=O)COc3ccccc3C(C)(C)C)c2C#N)C1 (stereo not drawn),inactive: 2.78%,–
N#CCN(C(=O)COC(=O)CCCNC(=O)c1ccc(Cl)cc1)c1ccccc1,–,active: 20.6 µM
Cc1ccc(C(=O)N(CC(=O)NC2CCCC2)c2ccccc2F)s1,inactive: -19.8%,–
CCCCCCCC(=O)N/N=C(\C)c1ccc(O)cc1O,inactive: 0%,–
Cc1c(C(=O)Nc2ccc(S(=O)(=O)N3CCOCC3)cc2)cccc1[N+](=O)[O-],inactive: 3.31%,–
CCOC(=O)[C@]12CCC=C1N(CCC1=CCCCC1)C(=O)[C@H](CC(=O)N1CCOCC1)C2,inactive: -16%,–
O=C(COc1ccc(Br)cc1)Nc1ccc(Cc2ccncc2)cc1,–,"inconclusive: 23.1 µM [rising, partial curve, poor fit]"
COc1cc(C=NC2CCCCC2)ccc1O,inactive: 5.52%,–
O=c1c2ccccc2sn1-c1ccc(Cl)c(S(=O)(=O)N2CCOCC2)c1,–,"inconclusive: 0.731 µM [cytotoxic, full curve, poor fit]"
FC(F)Sc1nc(-c2ccccc2)c(-c2ccccc2)n1C(F)F,–,"inconclusive: 29.1 µM [cytotoxic, single point]"
Cc1ccccc1-c1nc2ccccc2c(=O)o1,inactive: 20.7%,–
O=C(CN(Cc1cccs1)C(=O)CSc1nnc(COc2ccccc2)o1)NC1CCCCC1,inactive: -18.3%,–
CCN(CC)S(=O)(=O)c1ccc(N2CCOCC2)c(NC(=O)C(C)(C)C)c1,inactive: -4.12%,–
CC1CCCN(c2nc3c(c(=O)n(C)c(=O)n3C)n2CCSc2nc3ccccc3s2)C1 (stereo not drawn),–,active: 10.3 µM
Cc1ccc(C)c(NC(=S)NCc2cccs2)c1,inactive: -13.7%,–
CCOC(=O)C1(CCOc2ccccc2)CCN(Cc2ccncc2)CC1,–,"inconclusive: 18.4 µM [cytotoxic, single point]"
COc1cc(OC)cc(-c2c(C#Cc3ccsc3)c3cc(-c4ccc5c(c4)OCCO5)ccc3n2C)c1,–,"inconclusive: 29.1 µM [rising, single point]"
Nc1nc(NCc2ccco2)nc(Nc2ccccc2)c1[N+](=O)[O-],–,"inconclusive: 29.1 µM [rising, single point]"
CN(Cc1ccc(OC(F)F)cc1)C(=O)c1ccc(S(=O)(=O)N(C)c2ccccc2)cc1,inactive: -1.15%,–
Cc1oc2cc([N+](=O)[O-])c(O)c([N+](=O)[O-])c2c1C(=O)c1ccc(Br)cc1,–,"inconclusive: 29.1 µM [cytotoxic, single point]"
COC(=O)c1ccc(OCC2c3cc(OC)c(OC)cc3CCN2C(=O)c2ccco2)cc1 (stereo not drawn),–,active: 6.51 µM
COc1cccc(C(=O)N2CCCC(CCC(=O)NCc3ccc(F)c(F)c3)C2)c1 (stereo not drawn),–,"inconclusive: 18.4 µM [cytotoxic, single point]"
CN1CCN(c2ccc(S(=O)(=O)N3CCCCC3)cc2NC(=O)Cc2c(F)cccc2Cl)CC1,–,"inconclusive: 4.61 µM [cytotoxic, partial curve]"
Cc1cccc(-n2ccnc2SCC(=O)Nc2ccc3c(c2)OCO3)c1,inactive: 0%,–
O=C(N/N=C/c1ccc(OCc2ccccc2)cc1)c1ccco1,–,"inconclusive: 29.1 µM [rising, single point]"

# 2 entries drawn at random from those above:
Structure (SMILES),"activity change, negative = cytotoxicity",Potency
COc1cc(C=NC2CCCCC2)ccc1O,inactive: 5.52%,–
Cc1oc2cc([N+](=O)[O-])c(O)c([N+](=O)[O-])c2c1C(=O)c1ccc(Br)cc1,–,"inconclusive: 29.1 µM [cytotoxic, single point]"

# The listing continues:

Structure (SMILES),"activity change, negative = cytotoxicity",Potency
CCc1cc2cc(C)cc(C)c2nc1SCC(=O)N1CCN(C(=O)c2ccco2)CC1,–,active: 23.1 µM
CCN(CC)S(=O)(=O)c1cccc(C(=O)Nc2nc3cc4c(cc3s2)OCCO4)c1,–,active: 4.61 µM
CC(=O)N1CCCc2cc(S(=O)(=O)N3CCc4ccccc4C3)ccc21,–,"inconclusive: 18.4 µM [cytotoxic, single point]"
CSc1ncccc1C(=O)NCc1nnc2ccccn12,inactive: 9.96%,–
O=C(c1cccnc1)N1N=C(c2cccs2)CC1c1ccc(F)cc1 (stereo not drawn),–,"inconclusive: 10.3 µM [cytotoxic, partial curve]"
COc1cccc(N2CCN(C(=O)CN3C(=O)COc4ccc(S(=O)(=O)N5CCC(C)CC5)cc43)CC2)c1,–,"inconclusive: 4.61 µM [cytotoxic, full curve]"
CC1(C)CC(=O)CC(C2(O)C(=O)N(Cc3ccccc3)c3ccccc32)O1 (stereo not drawn),–,"inconclusive: 32.6 µM [cytotoxic, single point]"
Cc1[nH]c(=S)[nH]c(=O)c1CCOc1ccccc1,–,"inconclusive: 29.1 µM [cytotoxic, single point]"
CSc1nnc(Cc2sc(-c3ccccc3)nc2-c2ccccc2)o1,–,"inconclusive: 11.6 µM [cytotoxic, single point]"
CC1CCN(C(=O)C2CCN(S(=O)(=O)c3cc(Cl)ccc3Cl)CC2)CC1,–,"inconclusive: 14.6 µM [cytotoxic, single point]"
C[C@]12CCC(=O)CC1CCC1C2CC[C@@]2(C)C1CC[C@@]21CCO1 (stereo partly drawn),–,"inconclusive: 29.1 µM [rising, single point]"
CCOc1ccc(CN(C)C(=O)CCc2ccc(S(=O)(=O)N3CCCCCC3)cc2)cc1,–,"inconclusive: 29.1 µM [cytotoxic, single point]"
CCC1CCCCN1S(=O)(=O)c1ccc(C(=O)Nc2nnc(C3CC3)o2)cc1 (stereo not drawn),–,"inconclusive: 18.4 µM [cytotoxic, single point]"
COc1ccc(C(=O)NCC(c2cccnc2)N2CCc3ccccc32)cc1OC (stereo not drawn),inactive: -5.47%,–
Cc1nnc(N2CCOCC2)c2nn(-c3cccc(Cl)c3)c(C)c12,–,active: 3.66 µM
COc1ccc(OC)c(C(=O)c2ccc(C(=O)Nc3ccc4ccccc4c3)cc2)c1,–,"inconclusive: 2.06 µM [cytotoxic, full curve, poor fit]"
O=C(C1CC(=O)N(C2CCCCC2)C1)N1CCN(c2cccc(C(F)(F)F)c2)CC1 (stereo not drawn),–,"inconclusive: 8.2 µM [cytotoxic, partial curve]"
c1ccc(C2c3c(ccc4ccccc34)Oc3ncn4nc(-c5ccco5)nc4c32)cc1 (stereo not drawn),–,"inconclusive: 13 µM [cytotoxic, partial curve]"
Cc1cccc2nc(-c3cccnc3)c(Nc3ccccc3)n12,–,active: 18.4 µM
CN1N=C(C(=O)Nc2ccc3c(c2)CCC3)CCC1=O,–,"inconclusive: 25.9 µM [cytotoxic, single point]"
O=C(Nc1ccccc1N1CCCC1)c1cc(=O)[nH]c2ccccc12,–,"inconclusive: 18.4 µM [cytotoxic, single point]"
O=C1c2cc3ccccc3c(-c3ccccc3)c2C(=O)N1c1ccccn1,–,active: 13 µM
Cc1nc2ccc(S(=O)(=O)NCC(=O)NC(C)c3ccccc3)cc2s1 (stereo not drawn),inactive: 4.4%,–
C[C@@H]1CN([C@@H](C)CO)S(=O)(=O)c2ccc(Br)cc2O[C@H]1CN(C)C(=O)Cc1cccnc1,inactive: 4.53%,–
CCCCn1c(N)c(N(C(=O)CSc2nnc(C)n2-c2ccccc2)C2CCCC2)c(=O)[nH]c1=O,inactive: -1.42%,–

# Whole records, looked up by structure:
# c1ccc(C2c3c(ccc4ccccc34)Oc3ncn4nc(-c5ccco5)nc4c32)cc1 (stereo not drawn) is listed as Potency: inconclusive: 13 µM [cytotoxic, partial curve]
# CSc1nnc(Cc2sc(-c3ccccc3)nc2-c2ccccc2)o1 is listed as Potency: inconclusive: 11.6 µM [cytotoxic, single point]

# Carrying on:

Structure (SMILES),"activity change, negative = cytotoxicity",Potency
Fc1ccc(-[n+]2nc(Nc3ccccc3)sc2-c2c3ccccc3cc3ccccc23)cc1,–,"inconclusive: 29.1 µM [cytotoxic, single point]"
O=C(NCc1ccc(F)cc1)C(c1ccc(Cl)cc1)N(C(=O)c1csnn1)C1CC1 (stereo not drawn),–,"inconclusive: 6.51 µM [cytotoxic, partial curve]"
COc1ccc(-n2ncc3c(N4CCc5ccccc54)ncnc32)cc1,–,"inconclusive: 6.51 µM [cytotoxic, partial curve]"
Cc1cccc(Oc2ccc3c(c2)Oc2ccccc2NC3=O)c1,inactive: 15%,–
COc1ccc(-c2cc(C(=O)NCC(c3ccccc3)N(C)C)c3ccccc3n2)cc1OC (stereo not drawn),inactive: -26.7%,–
COc1cc(/C=C2\NC(=O)NC2=O)cc(Br)c1OC,–,active: 5.8 µM
O=C(COC(=O)/C=C/c1cccc(Br)c1)Nc1cccc(S(=O)(=O)NC2=NCCC2)c1,inactive: -3.66%,–
COC(=O)c1ccc(N2C(=O)CC(N(C)Cc3ccccc3)C2=O)cc1 (stereo not drawn),–,"inconclusive: 16.4 µM [rising, single point]"
O=C(/C=C/c1cccc([N+](=O)[O-])c1)N1CCN(S(=O)(=O)c2cccs2)CC1,–,"inconclusive: 20.6 µM [cytotoxic, single point]"
Brc1ccccc1-c1nnc(CSc2nncn2-c2ccccc2)o1,inactive: -23.7%,–
O=C(Nc1ccc(Cl)cc1)N1CCSc2ccccc21,–,"inconclusive: 29.1 µM [cytotoxic, single point]"
COc1ccc(-n2nnnc2SCC(=O)Nc2ccc3c(c2)OCCO3)cc1OC,–,active: 9.2 µM
COc1ccc(CNC(=O)c2cnn(-c3ccc(F)cc3)c2-n2cccc2)cc1,–,"inconclusive: 14.6 µM [cytotoxic, partial curve]"
COc1ccccc1C(=O)Nc1ccc2nc(SCC(=O)N(C)C)sc2c1,–,"inconclusive: 0.58 µM [rising, full curve, poor fit]"
CCCCN(CCCNC(=O)c1c(C)oc2nc[nH]c(=O)c12)Cc1ccccc1,inactive: 8.17%,–
Clc1cccc(N/N=C/c2ccc(N3CCOCC3)cc2)c1,–,"inconclusive: 9.2 µM [cytotoxic, partial curve, poor fit]"
CC(CO)NS(=O)(=O)c1cc(Cl)ccc1F (stereo not drawn),inactive: -15.4%,–
CCOc1ccc(-c2ncncc2-c2ccc(OC)c(OC)c2)c(O)c1,inactive: 4.78%,–
COc1ccc(OCc2cc(C(=O)N(C)C(C)c3ccon3)no2)c(Cl)c1 (stereo not drawn),–,"inconclusive: 29.1 µM [cytotoxic, single point]"
Cc1ccc(Nc2c(-c3cccnc3)nc3ccc(Br)cn23)cc1,–,"inconclusive: 7.31 µM [cytotoxic, partial curve]"
CNC(=O)c1c(NC(=O)c2ccc(S(=O)(=O)N3CCCCC3C)cc2)sc2c1CCC2 (stereo not drawn),inactive: -13.1%,–
COCc1ccc(C(=O)N2CCCC(C(=O)c3cccc(C(F)(F)F)c3)C2)o1 (stereo not drawn),–,"inconclusive: 18.4 µM [cytotoxic, single point]"
COc1ccc(NC(=O)CSCC(=O)Nc2cccc(S(=O)(=O)N3CCCCCC3)c2)cc1,–,"inconclusive: 29.1 µM [cytotoxic, single point]"
